Results on one sequence are retold here after paper PMC2918618, “Characterization of the TnsD-attTn7 complex that promotes site-specific insertion of Tn7” (Mobile DNA, 2010).

The series deals with T1, TnsD wt (Escherichia coli (transposon Tn7)) (UniProt P13991).
T1 sequence (looked up): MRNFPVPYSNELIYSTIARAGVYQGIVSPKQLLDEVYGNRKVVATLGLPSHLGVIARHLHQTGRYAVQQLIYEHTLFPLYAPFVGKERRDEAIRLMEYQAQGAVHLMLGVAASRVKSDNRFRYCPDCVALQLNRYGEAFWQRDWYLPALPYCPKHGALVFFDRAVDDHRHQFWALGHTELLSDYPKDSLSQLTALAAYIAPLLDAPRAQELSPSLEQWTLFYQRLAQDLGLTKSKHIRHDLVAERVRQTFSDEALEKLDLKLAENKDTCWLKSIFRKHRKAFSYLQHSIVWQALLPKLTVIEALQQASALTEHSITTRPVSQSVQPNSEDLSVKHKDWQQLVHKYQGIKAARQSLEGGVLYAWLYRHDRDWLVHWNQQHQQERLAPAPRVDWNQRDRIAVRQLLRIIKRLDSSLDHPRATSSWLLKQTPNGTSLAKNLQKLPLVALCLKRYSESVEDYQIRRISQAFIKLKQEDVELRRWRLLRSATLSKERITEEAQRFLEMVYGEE
Description: EMSA. As to conditions: 2 mM 1,10-phenanthroline (Zn chelator); Gel-shift buffer not given (as described in ref. 6); TnsD stored in 500 mM KCl, 50 mM Tris-HCl pH 8.0, 1 mM EDTA, 2 mM DTT, 25% glycerol; recombinant protein; residues 1-508; protein details: intein-chitin tag, cleaved with DTT.

Construct, isoform or probe ends are uncertain for at least one entry. The comparison behind a weaker result is the experiment's own reference, which may not be listed here. Tags and fusion partners may be left off the protein sequences shown.

Regarding “CCGCGTAACCTGGCAAAATCGGTTACGGTTGAGTAA (double strand) [attTn7 wt (+23 to +58)]”, the binding result was “binds more weakly”.
